Source: PubChem BioAssay AID652259 (Drosophila RNAi Screening Center, 2013)
The deposit covers about 22,000 reagents; below is a random part of those with a known target gene and a result. In the full data, 233 (1.1%) were called active. 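Light values are raw, unnormalised plate reads; the ratio scores behind the reporter calls were not deposited.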 A number with no mark means an inactive call. Not stated in the record: the amount of reagent, the time to read-out, the dose of the treatment.

Test: 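Genome-wide hunt for genes that control Wingless pathway activity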 (primary screen)
System: Drosophila clone 8 imaginal disc epithelial cells
Knock-down reagent: long dsRNA against Drosophila genes
Challenge: pathway stimulated by co-transfected Wingless expression plasmid
Detection: 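Firefly luciferase from a tcf-site Wingless reporter, measured alongside co-transfected Renilla luciferase that tracks transfection; pathway stimulated by a Wingless plasmid; the firefly-to-Renilla ratio is not deposited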
Direction: firefly reporter light: higher = more Wg reporter light, before normalisation; Renilla control light: higher = more transfected or surviving cells
Hit rule: 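a knock-down is a candidate when at least two out of four statistical tests show it departing from its plate mean; one test alone signals a weak candidate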
Calls: active = candidate regulator (raises or lowers reporter); inactive = not a candidate

Depletion of Lgr4 (Leucine-rich repeat-containing G protein-coupled receptor 4) [DRSC18969] resulted in: firefly reporter light, replicate 1 = 5303; Renilla control light, replicate 1 = 1392.
Against Lgr4 (Leucine-rich repeat-containing G protein-coupled receptor 4) [DRSC18970], the values are firefly reporter light, replicate 1 = 2870; Renilla control light, replicate 1 = 354.
Lgr4 (Leucine-rich repeat-containing G protein-coupled receptor 4) [DRSC19884] showed firefly reporter light, replicate 1 = 20181; Renilla control light, replicate 1 = 10077.
Uba2 (Ubiquitin-like activating enzyme 2) [DRSC11311] scored reporter change call, replicate 1 = Wg reporter activity raised (active); firefly reporter light, replicate 1 = 7920; firefly reporter light, replicate 2 = 25259; Renilla control light, replicate 1 = 1524; Renilla control light, replicate 2 = 4600.
Knock-down of mrj [DRSC22592] gave: firefly reporter light, replicate 1 = 7.37e5; firefly reporter light, replicate 2 = 7.59e5; Renilla control light, replicate 1 = 2.63e5; Renilla control light, replicate 2 = 67058.
After knock-down of Pep (Protein on ecdysone puffs) [DRSC11252], the record shows firefly reporter light, replicate 1 = 3376; Renilla control light, replicate 1 = 1929.
Dll (Distal-less) [DRSC04610] scored firefly reporter light, replicate 1 = 2201; firefly reporter light, replicate 2 = 6180; Renilla control light, replicate 1 = 541; Renilla control light, replicate 2 = 2272.
For CG42296 [DRSC00394], the entry reads firefly reporter light, replicate 1 = 2742; firefly reporter light, replicate 2 = 7873; Renilla control light, replicate 1 = 1213; Renilla control light, replicate 2 = 2732.
nAChRbeta1 (nicotinic Acetylcholine Receptor beta1) [DRSC08097] gave firefly reporter light, replicate 1 = 3026; Renilla control light, replicate 1 = 1920.
Against nAChRbeta1 (nicotinic Acetylcholine Receptor beta1) [DRSC08728], the entry reads firefly reporter light, replicate 1 = 5981; Renilla control light, replicate 1 = 2947.
Silencing of Syx13 (Syntaxin 13) [DRSC09836] gave: firefly reporter light, replicate 1 = 6285; Renilla control light, replicate 1 = 2125.
Depletion of CG4325 [DRSC18516] came out at: reporter change call, replicate 1 = Wg reporter activity raised (active); firefly reporter light, replicate 1 = 21799; Renilla control light, replicate 1 = 5100.
Silencing of Eaat2 (Excitatory amino acid transporter 2) [DRSC00032] resulted in: firefly reporter light, replicate 1 = 24353; Renilla control light, replicate 1 = 10021.
After knock-down of Eaat2 (Excitatory amino acid transporter 2) [DRSC00749] the results were firefly reporter light, replicate 1 = 10008; Renilla control light, replicate 1 = 5277.
Against MsR1 (Myosuppressin receptor 1) [DRSC08615], the entry reads firefly reporter light, replicate 1 = 5739; Renilla control light, replicate 1 = 2624.
After knock-down of Nup214 (Nucleoporin 214kD) [DRSC04421], the record shows firefly reporter light, replicate 1 = 10416; Renilla control light, replicate 1 = 2680.
After knock-down of SmydA-1 (SET and MYND domain containing, arthropod-specific, member 1) [DRSC07200], the record shows firefly reporter light, replicate 1 = 14393; Renilla control light, replicate 1 = 4060.
Depletion of Vha16-1 (Vacuolar H[+] ATPase 16kD subunit 1) [DRSC05020] came out at: firefly reporter light, replicate 1 = 4331; firefly reporter light, replicate 2 = 10253; Renilla control light, replicate 1 = 892; Renilla control light, replicate 2 = 3248.
CG6865 [DRSC10732] showed firefly reporter light, replicate 1 = 7226; Renilla control light, replicate 1 = 2482.
Against mTerf3 (mitochondrial transcription termination factor 3) [DRSC11759] the deposit lists firefly reporter light, replicate 1 = 7705; Renilla control light, replicate 1 = 3139.
Saysd1 (SAYSVFN motif domain containing 1) [DRSC14664] gave firefly reporter light, replicate 1 = 15612; Renilla control light, replicate 1 = 13640.
After knock-down of by (blistery) [DRSC16482], the record shows firefly reporter light, replicate 1 = 15056; Renilla control light, replicate 1 = 3600.
Against IKKepsilon (I-kappaB kinase epsilon) [DRSC03550], the entry reads firefly reporter light, replicate 1 = 2166; firefly reporter light, replicate 2 = 5388; Renilla control light, replicate 1 = 683; Renilla control light, replicate 2 = 2557.
Silencing of Smu1 (Smu1 spliceosomal factor) [DRSC15803] came out at: firefly reporter light, replicate 1 = 3873; firefly reporter light, replicate 2 = 9684; Renilla control light, replicate 1 = 592; Renilla control light, replicate 2 = 2295.
With knock-down of CG3032 [DRSC18266], the record shows firefly reporter light, replicate 1 = 21719; Renilla control light, replicate 1 = 9456.
Knock-down of SMC2 (Structural maintenance of chromosomes 2) [DRSC07544] gave: firefly reporter light, replicate 1 = 12945; Renilla control light, replicate 1 = 3811.
For ND-MWFE (NADH dehydrogenase (ubiquinone) MWFE subunit) [DRSC06364] the deposit lists firefly reporter light, replicate 1 = 11335; Renilla control light, replicate 1 = 4288.
Against Dlip3 (Dorsal interacting protein 3) [DRSC07401], the values are firefly reporter light, replicate 1 = 5155; Renilla control light, replicate 1 = 2706.
With knock-down of lncRNA:CR43485 (long non-coding RNA:CR43485) [DRSC08059], the record shows firefly reporter light, replicate 1 = 2875; Renilla control light, replicate 1 = 1142.
Knock-down of Usf [DRSC18129] gave: firefly reporter light, replicate 1 = 20997; Renilla control light, replicate 1 = 8802.
Depletion of Jon99Fii (Jonah 99Fii) [DRSC15430] came out at: firefly reporter light, replicate 1 = 5891; Renilla control light, replicate 1 = 3421.
After knock-down of CG12104 [DRSC08254] the results were firefly reporter light, replicate 1 = 12444; Renilla control light, replicate 1 = 6288.

An excerpt from above, reduced to “Renilla control light, replicate 1”.
Usf [DRSC18129] = 8802
Jon99Fii (Jonah 99Fii) [DRSC15430] = 3421
